In PubChem BioAssay AID1347075 (National Center for Advancing Translational Sciences (NCATS), 2019):
The campaign covered roughly 400,000 compounds. About 5,500 (1.4%) were called active. Inconclusive means that the source gave no clear call. Such entries were picked first, then a sample of the others. Calls come from the whole dose curve; as a rule, active = well fitted cell-killing curve with a large enough effect; inconclusive = small, poorly fitted or top-dose-only effect, or effect the other way; inactive = flat fitted curve, though single readings scatter. Where the call is inconclusive, the potency comes from a doubtful curve fit.
% is set by controls: 0 for no effect and ±100 for the full control effect; potency is the fitted concentration of half-maximal effect.

Test: qHTS assay for MDR1-selective chemotherapeutics: Primary screen using the parental adenocarcinoma cell KB-3-1; note: nearly all actives have a fitted effect of over 60% in size
Conditions: KB-3-1 viability, CellTiter-Glo ATP luminescence, 72 h; activity change, negative = cytotoxic: at 46.1 µM (top of the series)
Outline: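 Cytotoxicity in the drug-sensitive parental line KB-3-1 was scored as loss of CellTiter-Glo luminescence following 72 h incubation with compound. Values come from curve fitting of normalized concentration-response data.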
With `CN(C)CCCN1c2ccccc2Sc2ccc3ccccc3c21` the Potency was inconclusive: 29.1 µM [cytotoxic, single point]. For `CCc1ccc(C2=C(C)C(N3CCC(C(=O)NCc4ccc(C)o4)CC3)=NS2(=O)=O)cc1`, the Potency was “inactive”. With `N#C/C(=C\c1ccc(F)cc1)C(=O)NC1CCS(=O)(=O)C1` (stereo unspecified) the Potency was inconclusive: 29.1 µM [rising, single point]. With `COc1ccc(CN(CCC#N)C(=S)NC(=O)c2ccccc2)cc1` the Potency was inconclusive: 29.1 µM [cytotoxic, single point]. In the case of `COc1ccc(OC)c(C(c2nnnn2Cc2ccccc2)N2CCN(C3CCCCC3)CC2)c1` (stereo unspecified), the Potency is reported as inconclusive: 29.1 µM [cytotoxic, partial curve, poor fit]. For `COc1ccc(Nc2c3c(nc4ccccc24)CCC3)cc1`, the Potency was inconclusive: 23.1 µM [cytotoxic, single point]. For `COc1ccc(-c2[nH]ncc2/C=C(/C#N)C(=O)NC2CCCCCC2)cc1`, the Potency was inconclusive: 20.6 µM [cytotoxic, single point]. In the case of `COC(=O)N/N=C/c1cc(N=Nc2ccccc2Cl)ccc1O`, the Potency is reported as inconclusive: 29.1 µM [cytotoxic, single point]. With `COCCn1c(COc2ccc(Cl)cc2)nnc1SCC(N)=O` the Potency was inconclusive: 16.4 µM [cytotoxic, single point]. For `O=c1cc(-c2ccccc2)[nH]c2ccccc12`, the Potency was active: 0.651 µM. With `CC(C)n1c(N2CCN(C(=O)NCc3ccccc3)CC2)nc2ccccc21` the Potency was inconclusive: 20.6 µM [rising, partial curve, poor fit]. In the case of `CCn1c(-c2ccc(OC)c(OC)c2)n[nH]c1=S`, the Potency is reported as inconclusive: 29.1 µM [cytotoxic, single point]. For `COc1ccc2nc(N/C(N)=N/C(=S)Nc3c(C)cccc3C)nc(C)c2c1`, the Potency was inconclusive: 29.1 µM [cytotoxic, single point]. With `CCCCCC/C=C/c1ccc(OC)c([C@H]2[C@H]3C=CC[C@@H](C)[C@@H]3C(=O)N2Cc2ccccc2)c1` the Potency was inconclusive: 14.6 µM [cytotoxic, partial curve]. For `NNC(=O)c1[nH]c2ccc(Br)cc2c1-c1ccccc1`, the Potency was inconclusive: 25.9 µM [cytotoxic, single point]. In the case of `COCCNc1nc(-c2cc(C)n(CCc3ccc(OC)cc3)c2C)cs1`, the Potency is reported as inconclusive: 20.6 µM [cytotoxic, single point]. With `Cc1ccc(C(=O)Nc2ccc(F)cc2)cc1S(=O)(=O)N1CCOCC1` the Potency was inconclusive: 29.1 µM [cytotoxic, single point]. For `O=C(O)CCc1ccc(-c2ccc(Cl)cc2)n1-c1cccc(C(F)(F)F)c1`, the Potency was “inactive”. In the case of `CC(C)C[C@H](NC(=O)c1nc[nH]c1C(=O)N[C@@H](CC(C)C)C(=O)OC(C)(C)C)C(=O)OC(C)(C)C`, the Potency is reported as inconclusive: 29.1 µM [cytotoxic, single point]. With `CCn1c(=O)cc(OCC(=O)Nc2ccccc2Cl)c2ccccc21` the Potency was “inactive”. With `COCCN1C[C@@H](CO)O[C@@H](n2cnc3c(N(C)C)ncnc32)C1` the Potency was “inactive”. With `Cn1c(CN2CCCCC2)nc2cc(NC(=O)c3ccc(Cl)cc3)ccc21` the Potency was inconclusive: 29.1 µM [cytotoxic, single point]. For `Cc1cc(C)cc(C(=O)Nn2cnnc2)c1`, the Potency was “inactive”. With `Cc1ccc(-n2c(C)cc(C3N=C(N)Nc4nc5ccccc5n43)c2C)c(C)c1` (stereo unspecified) the Potency was “inactive”. With `O=C(Cc1ccc(F)cc1)NCCc1csc(-c2ccc(C(F)(F)F)cc2)n1` the Potency was inconclusive: 23.1 µM [cytotoxic, single point]. For `Cc1ccc2[nH]c(=O)c(CN(Cc3cccnc3)C(=O)c3ccncc3)cc2c1`, the Potency was inconclusive: 20.6 µM [cytotoxic, single point]. With `N#C/C(=C\c1cccnc1)c1ccccc1[N+](=O)[O-]` the Potency was inconclusive: 29.1 µM [cytotoxic, single point]. With `COc1cc(C(=O)Nc2nc3ccccc3s2)ccc1OCc1c(C)noc1C` the Potency was inconclusive: 3.66 µM [cytotoxic, partial curve, poor fit]. In the case of `C=CCNc1nc(NCc2ccc(N(C)C)cc2)c2sc(-c3ccccc3)cc2n1`, the Potency is reported as inconclusive: 29.1 µM [cytotoxic, single point]. With `COc1ccc(-c2oc3ccc(N4CCOCC4)cc3c2C#CC2(O)CCCCC2)cc1` the Potency was active: 20.6 µM. For `O=[N+]([O-])c1cnc(Sc2ccncn2)s1`, the Potency was active: 18.4 µM. With `CCOC(=O)Cc1csc(NC(=O)c2ccc(Cl)s2)n1` the Potency was inconclusive: 29.1 µM [cytotoxic, single point]. With `CCn1cc(S(=O)(=O)CC(=O)Nc2ccc3c(c2)OCO3)c2ccccc21` the activity change, negative = cytotoxic was inconclusive: -41.6%. In the case of `CCOC(=O)N1CCC(NC(=O)c2ccc3c(c2)N(C)C(=O)/C(=C/c2cccc(OC)c2)S3)CC1`, the Potency is reported as “inactive”. In the case of `O=C(CCc1ccc(S(=O)(=O)N2CCOCC2)cc1)Nc1c(F)cccc1F`, the Potency is reported as inconclusive: 29.1 µM [cytotoxic, single point]. For `COc1ccc(-c2csc(C3=C(O)CN(Cc4ccc(Cl)cc4)C3=N)n2)cc1OC`, the Potency was “inactive”. With `CN(C)c1ccc(-c2ccc([C@H]3[C@@H]4C=CCC[C@@]4(C)C(=O)N3Cc3ccccc3)c(F)c2)cc1` the activity change, negative = cytotoxic was inconclusive: -80%. For `Nc1ncnc2c1ncn2C1OC(CO)C(O)C1O` (stereo unspecified), the Potency was “inactive”. For `CC(C)c1ccccc1NC(=O)COC(=O)c1c2c(nc3ccccc13)CCN(Cc1ccccc1)C2`, the Potency was inconclusive: 29.1 µM [cytotoxic, single point]. In the case of `Nc1ccccc1C(=O)NNc1c2ccccc2nc2ccccc12`, the Potency is reported as inconclusive: 29.1 µM [cytotoxic, single point]. With `N#Cc1cc2c(=O)n3ccccc3nc2n(-c2nnc(SCc3ccccc3)s2)c1=O` the Potency was “inactive”. For `COC(=O)[C@@]12CCCN1[C@H](c1ccc(-c3cccc(Cl)c3)cc1)[C@H]1C(=O)N(C)C(=O)[C@H]12`, the Potency was inconclusive: 29.1 µM [cytotoxic, single point]. For `Cc1cc(C)nc(Nc2n[nH]c(-c3ccc(C(C)(C)C)cc3)n2)n1`, the Potency was inconclusive: 29.1 µM [cytotoxic, single point]. In the case of `C=CCC[C@@H](Cc1ccc(F)cc1)C(=O)OC[C@H](C)NC(=O)[C@@H](CC=C)CC(=O)N(CCO)Cc1ccccc1`, the Potency is reported as “inactive”. In the case of `C=CCN(Cc1cc(OC)ccc1OC)C(=O)c1cc2ccc(OC)cc2[nH]1`, the Potency is reported as inconclusive: 23.1 µM [cytotoxic, single point]. In the case of `NC(c1csc(NC(=O)Nc2ccccc2)n1)C1CCCCC1` (stereo unspecified), the Potency is reported as inconclusive: 20.6 µM [cytotoxic, single point]. With `C#CCN(C[C@@H]1[C@@H](OC(=O)Nc2c(C)noc2C)[C@@H](OC(=O)Nc2c(C)noc2C)Cn2c(=O)n(CCCCCC)c(=O)n21)S(=O)(=O)c1ccc(C)cc1` the Potency was inconclusive: 29.1 µM [cytotoxic, single point]. In the case of `CCOC(=O)c1nnsc1Nc1ccc(C)c(C)c1`, the Potency is reported as inconclusive: 25.9 µM [rising, partial curve]. With `Cc1ccc(NC(CNS(=O)(=O)c2ccc(Cl)cc2)c2ccccc2)cc1` (stereo unspecified) the Potency was inconclusive: 29.1 µM [cytotoxic, single point]. For `CC1=C(C(=O)Nc2ccccc2F)C(c2ccsc2)C2=C(CC(C)(C)CC2=O)N1` (stereo unspecified), the Potency was inconclusive: 20.6 µM [cytotoxic, single point]. For `Cc1ccc(C)c(NC(=O)CN(C)C(=O)COc2cccc3c2OC(C)(C)C3)c1`, the Potency was “inactive”. For `Cc1ccc(-c2nnn(CC(=O)N(CC(=O)NC3CCCC3)c3ccc(F)c(Cl)c3)n2)o1`, the Potency was inconclusive: 29.1 µM [cytotoxic, single point]. In the case of `O=C1CN(C(=O)COc2ccccc2)C(c2ccc(F)cc2)c2cc(Br)ccc2N1` (stereo unspecified), the Potency is reported as inconclusive: 25.9 µM [cytotoxic, single point]. With `Cc1ccc(NC(=O)C(C)N2CCN(C)CC2)cc1S(=O)(=O)N1CCOCC1` (stereo unspecified) the Potency was “inactive”. In the case of `COCC(C)n1c(SCc2nc(N)nc(Nc3ccccc3C)n2)nc2ccccc2c1=O` (stereo unspecified), the Potency is reported as “inactive”. In the case of `Cc1ccc(C(=O)O/N=C(\N)Cc2ccc([N+](=O)[O-])cc2)c(Cl)c1`, the Potency is reported as inconclusive: 29.1 µM [cytotoxic, single point]. For `ON=C1CCC2CCCCC2C1` (stereo unspecified), the Potency was inconclusive: 29.1 µM [rising, partial curve, poor fit]. In the case of `CCOC(=O)[C@H]1[C@H]2COc3ccc(C)cc3[C@@H]2N2C(=O)c3cc(Br)ccc3NC(=O)[C@@]12C`, the Potency is reported as inconclusive: 29.1 µM [cytotoxic, single point]. For `Clc1ccc(CSc2nccn2Cc2ccccc2)cc1`, the Potency was inconclusive: 18.4 µM [cytotoxic, single point]. With `COc1ccccc1N1CCN(Cc2cc(Br)c(O)c3ncccc23)CC1` the Potency was inconclusive: 20.6 µM [cytotoxic, single point]. In the case of `Cc1c(C)c2ccc(OC(C)C(=O)NCCCN3CCOCC3)c(C)c2oc1=O` (stereo unspecified), the Potency is reported as “inactive”. For `O=c1[nH]c(=O)n(C2OC(CO)C(O)C2O)cc1F` (stereo unspecified), the Potency was active: 20.6 µM. In the case of `CCOc1ccc(S(=O)(=O)Nc2cccc(Cl)c2)cc1`, the Potency is reported as inconclusive: 29.1 µM [cytotoxic, single point]. In the case of `O=C(Nc1cccc(C(F)(F)F)c1)c1cccnc1NCCc1ccccc1`, the Potency is reported as inconclusive: 29.1 µM [cytotoxic, single point]. In the case of `CCC(c1nnnn1-c1ccc2c(c1)OCCO2)N1CCN(Cc2c(F)cccc2Cl)CC1` (stereo unspecified), the Potency is reported as inconclusive: 29.1 µM [cytotoxic, single point]. With `O=C(Nc1ccccc1)Nc1cccn(Cc2c(F)cccc2Cl)c1=O` the Potency was inconclusive: 29.1 µM [cytotoxic, single point].
